Results are given in words; binding and its absence hold for the method and conditions named. Some binding calls cover weakened binding; strength is not graded here. Each block holds one binder with its values, some of them ahead of it.
What was measured:
[1] = molecular target: native CHI3L1 protein in a serum sample (UniProt P36222); assay: bead-based sandwich immunoassay; Clone F is the capture antibody on beads
[2] = molecular target: native CHI3L1 protein in a serum sample (UniProt P36222); assay: sandwich ELISA; biotinylated Clone F is the detection antibody, avidin-HRP/TMB, absorbance at 450 nm
[3] = molecular target: native CHI3L1 protein in a serum sample (UniProt P36222); assay: sandwich ELISA; Clone B is the capture antibody coated on the plate
[4] = molecular target: native CHI3L1 protein in a serum sample (UniProt P36222); assay: bead-based sandwich immunoassay; biotinylated Clone B is the detection antibody, SAV-PE read-out

Chains of the proteins cited; added tags and fusions are not shown. Residues count along the entry.
UniProt P36222, residues 22-383: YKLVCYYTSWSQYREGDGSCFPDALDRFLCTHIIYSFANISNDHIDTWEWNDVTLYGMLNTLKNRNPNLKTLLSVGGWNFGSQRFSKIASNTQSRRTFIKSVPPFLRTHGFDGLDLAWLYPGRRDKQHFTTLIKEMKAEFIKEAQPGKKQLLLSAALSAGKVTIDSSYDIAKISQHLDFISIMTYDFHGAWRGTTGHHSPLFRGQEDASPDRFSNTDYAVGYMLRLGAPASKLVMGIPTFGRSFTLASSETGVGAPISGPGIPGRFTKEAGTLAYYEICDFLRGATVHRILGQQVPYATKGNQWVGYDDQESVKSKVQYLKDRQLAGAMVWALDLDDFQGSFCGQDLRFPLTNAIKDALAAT

binding [1]: binds
binding [2]: binds
B1: anti-human CHI3L1 (Clone F) (antibody, V domains shown)
VH: QVQLQQSGPELVRPGVSVKISCKGSGYTFTDYAMHWVKQSHAKSLEWIGVISTYSGHTNYNQKFKGKATMTVDKSSSTAYMELARLTSEDSAIYYCARGVYYKPEFDYWGQGTTLTVSS
VL: DIQMTQSSSSFSVSLGDRVTITCKASEDIYNRLAWYQQKPGNAPRLLIFGATSLETGVPSRFSGSGSGKDYTLSITSLQTEDVATYYCQQYSSTPPTFGGGTKLEIK
notes: Hybridoma monoclonal antibody; a mouse IgG1 kappa isotype control was used alongside it

binding [3]: binds
binding [4]: binds
B2: Clone B (antibody, V domains shown)
VH: EVKLLESGGGLVQPGGSLKLSCAASGCDFSRYWMSWVRQAPGKGLEWIGEINPDSSTINYTPSLKDKFIISRDNAKNTLYLQMSKVRSEDTALYYCARPEDHFAMDYWGQGTSVTVSS
VL: DIQMTQSPASQSASLGESVTITCLASQTIGTWLAWYQQKPGKSPQLLIYAATSLADGVPSRFSGSGSGTKFSFKISSLQAEDFVSYYCQQLYSTPWTFGGGTKLEIK
notes: Hybridoma monoclonal antibody

Reference: patent publication US20250313650A1 (BIOLEGEND, published 2025)
